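Luminescence from an EWS-FLI1 target-promoter (NR0B1) reporter, set against a CMV-promoter reporter, two days after silencing single genes in TC32 Ewing sarcoma cells.
Each siRNA was applied at 20 nM.
A z-score of the log NR0B1-over-CMV signal, less the median of siRNAs with the same seed; more negative means a stronger specific loss of the NR0B1 reporter.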

This is part of the screen; most of the strongest results are not listed here.
Sequences are the guide (antisense) strand, without overhang.

siRNA: UACUCCAUAGCGUAGGAUC
target gene: ERG
seed-corrected z-score: 0.5456

siRNA: UCUAAGUUCAAACAGAUGG
target gene: TLR5
seed-corrected z-score: 0.2217

siRNA: UCAAAGUCCACGUUCAUGU
target gene: UFD1L
seed-corrected z-score: 0.854

siRNA: AUAGUUGAGUCCCACAUCG
target gene: NDRG2
seed-corrected z-score: -0.896

siRNA: AGAUUUGUCAAUCUUCUGG
target gene: ADRB2
seed-corrected z-score: 0.6805

siRNA: UCUUGUCCAAGAAGUAGCG
target gene: BCKDK
seed-corrected z-score: -0.4155

siRNA: UUUAGAUCACGCAUGAUGG
target gene: YIPF6
seed-corrected z-score: -0.5045

siRNA: UUUGAUUUAUGUUAACUGG
target gene: SMLR1
seed-corrected z-score: 0.761

siRNA: UUCCGAAGUGUGAAAAUCC
target gene: PPFIBP2
seed-corrected z-score: -0.3289

siRNA: UGAUGUUCACGUUACAGCC
target gene: DAPK1
seed-corrected z-score: -1.684

siRNA: AAGGGUAUAAAUCAUAGGA
target gene: OR4N4
seed-corrected z-score: -0.1608

siRNA: UAUUUGUUCGACGCAAUCG
target gene: TET3
seed-corrected z-score: 1.101

siRNA: UUCAAUGACAUGUGCGUGC
target gene: ZDHHC1
seed-corrected z-score: -0.8535

siRNA: UGGUCCAAUAGAUUCAUGC
target gene: TFAP2B
seed-corrected z-score: 0.317

siRNA: UGGGUAGUCAUCAACGAGG
target gene: CRYBA2
seed-corrected z-score: -0.6012

siRNA: UAUCUUGAGAAGGAGAAUG
target gene: LYPD6B
seed-corrected z-score: 0.02792

siRNA: AAAGGUCAUAGUCUGAGGG
target gene: BST1
seed-corrected z-score: 0.4485

siRNA: UGUCAAACAUGGGAGGUGC
target gene: AUTS2
seed-corrected z-score: 0.6063

siRNA: UACUGCAAGAUGUCCAUCU
target gene: HS1BP3
seed-corrected z-score: -1.196

siRNA: UUCUAGGUCCUCUACAUGG
target gene: MCL1
seed-corrected z-score: 0.3237

siRNA: UCAUUGUCAAUAACAUCAG
target gene: PAICS
seed-corrected z-score: -0.5479

siRNA: UUUACUUUGACGGACCAUC
target gene: LINC00639
seed-corrected z-score: -1.169

siRNA: UGUUAUAGAAGUCAACUUG
target gene: ZMYM1
seed-corrected z-score: 0.4393

siRNA: AGAGGUAACAGCAGACGGC
target gene: ATP6V0E2
seed-corrected z-score: 0.1304

siRNA: UUCCGGUCAUAGUUGAGCC
target gene: PPFIA3
seed-corrected z-score: 0.159

siRNA: AAAACGGCAAUGUACAUGC
target gene: MFSD11
seed-corrected z-score: -0.1259

siRNA: UUUUCUACAAUCUGGUGUG
target gene: SLC24A5
seed-corrected z-score: 0.736

siRNA: UUAAUUGAAGACAACAAGC
target gene: CTDSPL2
seed-corrected z-score: 0.3533

siRNA: AAGGUCAUCACCUUUCAAC
target gene: HNRNPCL1
seed-corrected z-score: 1.203

siRNA: ACUUCGUUUGGUGUAGUCC
target gene: SH3TC1
seed-corrected z-score: -0.2377

siRNA: UACAUUUACUCGCACAAGC
target gene: CENPW
seed-corrected z-score: 1.666

siRNA: UUCUCUUACUAAUUAGUGC
target gene: DEFB107A
seed-corrected z-score: 0.2721

siRNA: AUCCCGUUGAGAAUGAUCC
target gene: KCNV2
seed-corrected z-score: -0.234

siRNA: UAAGCUGUCACUGUAAACU
target gene: CLSTN3
seed-corrected z-score: -0.09357

siRNA: UGUGAAAUAAGGCAGCAGG
target gene: CD276
seed-corrected z-score: 0.1838

siRNA: UUUGGGUAAACCAAUUAAG
target gene: NEK3
seed-corrected z-score: -0.2174

siRNA: UGCUGGGUCACCAUCAUGG
target gene: MYBPH
seed-corrected z-score: -0.06957

siRNA: UGAAGUAAAAGUUCCUUAG
target gene: IFNB1
seed-corrected z-score: 0.864

The last 2 entries again:

Result for UGCUGGGUCACCAUCAUGG against MYBPH was seed-corrected z-score -0.06957.
Result for UGAAGUAAAAGUUCCUUAG against IFNB1 was seed-corrected z-score 0.864.

Data taken from PubChem BioAssay AID1159506, deposited by NCATS (2015).